# Experimental data published in PubChem BioAssay AID588590 (National Center for Advancing Translational Sciences (NCATS), 2011).
# Amino acid sequences for entries named in this document (tags omitted). A change or cut given only in a name is not applied to a line headed by its entry.
# UniProt Q9UNA4: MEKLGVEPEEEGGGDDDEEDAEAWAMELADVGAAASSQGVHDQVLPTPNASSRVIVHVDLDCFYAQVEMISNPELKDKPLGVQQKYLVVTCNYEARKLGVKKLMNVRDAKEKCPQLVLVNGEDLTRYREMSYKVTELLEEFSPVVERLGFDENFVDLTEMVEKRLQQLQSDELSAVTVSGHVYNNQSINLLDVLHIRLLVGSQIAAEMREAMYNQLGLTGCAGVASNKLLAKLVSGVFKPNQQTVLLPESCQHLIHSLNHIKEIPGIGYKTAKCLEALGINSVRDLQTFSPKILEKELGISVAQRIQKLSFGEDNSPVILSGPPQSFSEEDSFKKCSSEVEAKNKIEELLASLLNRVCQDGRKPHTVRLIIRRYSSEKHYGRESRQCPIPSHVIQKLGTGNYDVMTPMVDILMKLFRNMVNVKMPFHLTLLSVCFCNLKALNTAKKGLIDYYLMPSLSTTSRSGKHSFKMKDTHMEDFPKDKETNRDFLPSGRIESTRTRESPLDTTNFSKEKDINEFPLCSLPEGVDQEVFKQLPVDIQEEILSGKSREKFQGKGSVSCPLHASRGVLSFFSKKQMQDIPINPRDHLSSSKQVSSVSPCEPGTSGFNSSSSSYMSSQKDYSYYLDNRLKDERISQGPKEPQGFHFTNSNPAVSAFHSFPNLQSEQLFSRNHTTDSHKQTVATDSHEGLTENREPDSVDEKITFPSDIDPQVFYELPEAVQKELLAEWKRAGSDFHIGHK
# Among all 390,000 compounds or so, about 4,000 (1%) were called active. This list was built around the results that the source calls inconclusive (neither active nor inactive); the mix of calls is not that of the screen. Calls come from the whole dose curve; as a rule, active = well fitted inhibition curve with a large enough effect; inconclusive = small, poorly fitted or top-dose-only effect, or another doubt; inactive = no such curve, though single readings can be large or run the other way. Potencies beside an inconclusive call are fits to weak or partial responses and may not hold up.
# Biological target: DNA polymerase iota (Homo sapiens) (UniProt Q9UNA4)
# Experiment: qHTS for Inhibitors of Polymerase Iota
# Conditions: Pol iota fluorescent replication assay, 10 min; series mostly up to 115 µM
# Method in brief: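 Pol iota at 10 nM preincubated 15 min with compounds at room temperature; reaction started with fluorescent substrate, 50 nM final. Fluorescence read kinetically at 0 and 10 min; buffer-only wells as negative control.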
# Potency is the fitted concentration of half-maximal effect.
row,Structure (SMILES),Potency
1,O=C(c1ccc(Cl)c(S(=O)(=O)N2CCOCC2)c1)N1CCN(Cc2ccccc2)CC1,"inconclusive: 10 µM [inhibitor, single point]"
2,Cc1cc(C)nc(N2CCC(C(=O)N3CCN(c4cc(Cl)ccc4C)CC3)CC2)n1,"inconclusive: 39.8 µM [inhibitor, partial curve, poor fit]"
3,Cc1ccc(-c2n[nH]c3c2C(c2cccs2)N(c2ccc(Cl)cc2)C3=O)cc1 (stereo unspecified),inactive
4,Cc1ccc(Oc2ncccc2C(=O)NC2CCSC2=O)cc1 (stereo unspecified),inactive
5,Cc1ccccc1OCC(O)CN1CCN(C)CC1 (stereo unspecified),"inconclusive: 15.8 µM [inhibitor, single point]"
6,O=C(COc1coc(CN2CCN(c3ccccc3)CC2)cc1=O)Nc1ccccc1,"inconclusive: 25.1 µM [inhibitor, partial curve, poor fit]"
7,CCOC(=O)C1(CCC(C)C)CC(CSc2nc3ccccc3[nH]2)OC1=O (stereo unspecified),"inconclusive: 56.2 µM [inhibitor, partial curve, poor fit]"
8,COc1cc2c(cc1OC)C(c1ccc([N+](=O)[O-])cc1)NCC2 (stereo unspecified),"inconclusive: 63.1 µM [inhibitor, single point]"
9,CN(C)/C=N/NC(=O)c1ccccc1Cl,inactive
10,O=C(COc1ncnc2ccccc12)N1CCN(C(=O)c2ccco2)CC1,inactive
11,COc1ccc(CCNC(=O)/C=C/c2ccco2)cc1,"inconclusive: 56.2 µM [inhibitor, partial curve, poor fit]"
12,CCc1ccc(/C=C2\C(=N)N3N=C(CC(=O)N4CCCCC4)SC3=NC2=O)cc1,"inconclusive: 79.4 µM [inhibitor, single point]"
13,COc1cccc(CSc2nc(-c3ccccc3OC)nc3c2Cc2c(CO)cnc(C)c2O3)c1,inactive
14,CCOc1ccc(S(=O)(=O)N2CCN(c3ccc(C)cc3C)CC2)c2ccccc12,inactive
15,O=C1Nc2ccc([N+](=O)[O-])cc2C1=Nc1cccc(CO)c1,active: 7.94 µM
16,Nc1cccc(Nc2nc(OC(C(F)(F)F)C(F)(F)F)nc(OC(C(F)(F)F)C(F)(F)F)n2)c1,"inconclusive: 1.12 µM [inhibitor, partial curve, poor fit]"
17,COc1ccc(/C=N/NC(=O)c2ccc(O)cc2O)cc1CSc1ccccn1,"inconclusive: 100 µM [inhibitor, partial curve, poor fit]"
18,CCN1CCN(Cc2coc3ccc(C)cc3c2=O)CC1,"inconclusive: 50.1 µM [inhibitor, full curve, poor fit]"
19,O=C1CCCN2N=C(SCC(=O)Nc3cccc(F)c3)SC2=N1,"inconclusive: 50.1 µM [inhibitor, partial curve, poor fit]"
20,COC(=O)CCC(=O)OC1(C)C(=O)C=C2C=C(C3CC3)N(CCN3CCOCC3)C=C2C1=O (stereo unspecified),"inconclusive: 28.2 µM [inhibitor, single point]"
21,COc1cc(CC2COC(c3ccc(O)c(OC)c3)C2COC(C)=O)ccc1O (stereo unspecified),active: 10 µM
22,CCc1cc(=O)[nH]c(-n2[nH]c(-c3ccccc3)cc2=O)n1,"inconclusive: 17.8 µM [inhibitor, partial curve, poor fit]"

row,Structure (SMILES),Potency
1,Cc1ccc(-c2cccc(C3CC=CC4C3C(=O)N(Cc3ccccc3)C4c3ccc4ccccc4c3)c2)cc1 (stereo unspecified),"inconclusive: 25.1 µM [inhibitor, partial curve, poor fit]"
2,C[C@H]1c2cccc(O)c2C(O)=C2C(=O)[C@]3(O)C(O)=C(C(N)=O)C(=O)[C@@H](N(C)C)[C@@H]3[C@@H](O)[C@@H]21,inactive
3,CCOc1ccc(OCCCC(=O)NCCc2ccc(OC)cc2)cc1,"inconclusive: 89.1 µM [inhibitor, single point]"
4,COc1ccc(C(=O)Nc2c(N)nc(SCC(=O)Nc3ccc(NC(C)=O)cc3)[nH]c2=O)cc1,active: 79.4 µM
5,CCCCOc1ccc([N+](=O)[O-])cc1C(=O)O,"inconclusive: 89.1 µM [inhibitor, partial curve, poor fit]"
6,CCCCOC(=O)c1ccc(NC(=O)/C(C#N)=C/c2ccc(C)o2)cc1,"inconclusive: 89.1 µM [inhibitor, single point]"
7,COc1cccc(S(=O)(=O)NCc2ccc(C(=O)NCc3ccco3)cc2)c1,"inconclusive: 79.4 µM [inhibitor, partial curve]"
8,COC(=O)c1ccc(C(=O)OCc2nc3cc4ccccc4cc3[nH]2)cc1,"inconclusive: 50.1 µM [inhibitor, partial curve, poor fit]"
9,COC(=O)c1ccc(NC(=O)CN(c2cccc(C(F)(F)F)c2)S(C)(=O)=O)cc1,inactive
10,CN(C)C(=O)N=NC(=O)N(C)C,"inconclusive: 25.1 µM [inhibitor, single point]"
11,CCN1/C(=C/C(C)=O)Sc2ccc(OC)cc21,"inconclusive: 89.1 µM [inhibitor, partial curve, poor fit]"
12,Cc1cc(-c2nnc(SCCC(=O)Nc3ccccc3)o2)no1,"inconclusive: 25.1 µM [inhibitor, full curve, poor fit]"
13,Cc1cc(Cl)ccc1NNC(N)=S,active: 14.1 µM
14,Cc1noc(/C=C/c2ccco2)c1S(=O)(=O)N1CCC(C(=O)N2CCc3ccccc3C2)CC1,active: 44.7 µM
15,Cc1ccc(C(=O)Nc2ccnc(-c3ccncc3)n2)cc1,inactive
16,O=C(NCCC1=CCCCC1)c1ccc2c(c1)N(Cc1ccc(Cl)cc1)C(=O)c1ccccc1S2(=O)=O,inactive
17,CC(Oc1ccc2ccc(=O)oc2c1)C(=O)NC(Cc1c[nH]c2ccc(O)cc12)C(=O)O (stereo unspecified),"inconclusive: 79.4 µM [inhibitor, partial curve, poor fit]"
18,N#Cc1cccnc1N1CCN(C(=O)COCC(=O)O)CC1,"inconclusive: 2.82 µM [inhibitor, partial curve, poor fit]"
19,COc1cc(OC)cc(-c2nnc(NC(=O)CCS(=O)(=O)c3ccc(C)cc3)o2)c1,"inconclusive: 17.8 µM [inhibitor, full curve]"
20,O=C(N/N=C/c1ccc(O)c(O)c1)C1c2ccccc2Oc2ccccc21,"inconclusive: 10 µM [inhibitor, partial curve, poor fit]"
21,COc1ccc(C(=O)Nc2ccc(NC(=O)c3cccc(F)c3)cn2)cc1,"inconclusive: 28.2 µM [inhibitor, full curve, poor fit]"
22,COc1ccc(CCNC(=O)Cn2nc(C)c3c(C)n(-c4ccc(C)cc4)nc3c2=O)c(OC)c1,"inconclusive: 28.2 µM [inhibitor, single point]"

# Look-ups from above:
# `CCOc1ccc(OCCCC(=O)NCCc2ccc(OC)cc2)cc1` – Potency: inconclusive: 89.1 µM [inhibitor, single point]
# `COc1cccc(S(=O)(=O)NCc2ccc(C(=O)NCc3ccco3)cc2)c1` – Potency: inconclusive: 79.4 µM [inhibitor, partial curve]
# `COC(=O)c1ccc(C(=O)OCc2nc3cc4ccccc4cc3[nH]2)cc1` – Potency: inconclusive: 50.1 µM [inhibitor, partial curve, poor fit]
# `COc1cc(OC)cc(-c2nnc(NC(=O)CCS(=O)(=O)c3ccc(C)cc3)o2)c1` – Potency: inconclusive: 17.8 µM [inhibitor, full curve]
# `O=C(N/N=C/c1ccc(O)c(O)c1)C1c2ccccc2Oc2ccccc21` – Potency: inconclusive: 10 µM [inhibitor, partial curve, poor fit]

# Remaining list, next part.

row,Structure (SMILES),Potency
1,Cc1ccc(Nc2nc(C)c(NC(=O)c3ccc(C)cc3)c(Nc3ccc(C)cc3)n2)cc1,"inconclusive: 89.1 µM [inhibitor, single point]"
2,Cc1ccc(S(=O)(=O)Nc2cccc(C(=O)NCC(c3ccco3)N3CCCC3)c2)cc1F (stereo unspecified),"inconclusive: 39.8 µM [inhibitor, partial curve, poor fit]"
3,O=c1cc(-c2ccc([N+](=O)[O-])cc2)nc2cc(-c3ccc(F)cc3)[nH]n12,"inconclusive: 112 µM [inhibitor, partial curve, poor fit]"
4,Cn1c2ccccc2c(=O)c2c(=O)n(Cc3ccco3)c(-c3ccc(F)cc3)nc21,"inconclusive: 25.1 µM [inhibitor, full curve]"
5,Cc1cc(C(C)(C)C)cc(S(=O)(=O)NCCc2ccncc2)c1C,"inconclusive: 89.1 µM [inhibitor, single point]"
6,N=S(=O)(O)Cc1noc2ccccc12,inactive
7,Nc1c(Cl)cc(-c2csc(NC(CO)c3nc4ccccc4n3CCOCCO)n2)cc1Cl (stereo unspecified),"inconclusive: 39.8 µM [inhibitor, single point]"
8,Cc1cc2ncc(C(=O)N=CN(C)C)cn2n1,"inconclusive: 89.1 µM [inhibitor, partial curve, poor fit]"
9,CS(=O)(=O)c1ccc(C(=O)OCC(=O)N2CCCC2)cc1[N+](=O)[O-],"inconclusive: 70.8 µM [inhibitor, partial curve]"
10,CCC1ON(c2ccccc2)C2c3nc4ccccc4n3CC12 (stereo unspecified),"inconclusive: 0.631 µM [inhibitor, full curve, poor fit]"
11,Cc1cc(=O)n(CC(=O)NC(C)c2ccccc2)c2c1c(C)nn2C (stereo unspecified),inactive
12,CC(=O)n1cc(/C=N/NC(=O)c2sc(C)nc2C)c2ccccc21,active: 11.2 µM
13,Cc1ccnc2c(N3C(=O)C4C5C=CC(C5)C4C3=O)cccc12 (stereo unspecified),"inconclusive: 20 µM [inhibitor, full curve, poor fit]"
14,C/C=C(\NNC(C)=O)c1ccc(O)cc1,inactive
15,CCc1nn2c(=O)cc(COC(=O)c3ccccc3NC(=O)c3cccs3)nc2s1,"inconclusive: 89.1 µM [inhibitor, partial curve]"
16,Cc1c(C(=O)O)sc2ncnc(N3CCCCC3C)c12 (stereo unspecified),inactive
17,N#C/C(=C/c1ccc(O)c([N+](=O)[O-])c1)C(=O)Nc1ccccc1,"inconclusive: 56.2 µM [inhibitor, partial curve, poor fit]"
18,Cc1cc(C)cc(NC(=O)CN(Cc2ccccc2)S(C)(=O)=O)c1,"inconclusive: 28.2 µM [inhibitor, single point]"
19,CCOC(=O)c1cn[nH]c1N,"inconclusive: 35.5 µM [inhibitor, single point]"
20,O=C(NCc1ccco1)c1ccc(S(=O)(=O)N2CCOCC2)cc1,active: 15.8 µM
21,Cc1ccc(-n2ncc(C#N)c2N)cc1,"inconclusive: 14.1 µM [inhibitor, partial curve, poor fit]"
22,Cc1cccc(CCNC(=O)c2c[nH]c3ccc(S(=O)(=O)Nc4ccccc4F)cc3c2=O)c1,"inconclusive: 79.4 µM [inhibitor, partial curve, poor fit]"
